The list shows a part of the results.
These sequences were tested against OsWRKY34 (Oryza sativa, UniProt Q0JBA9 1-250) (assay: protein-binding microarray (RPBM); PBS, 2% BSA, 51.3 ng/ul salmon testes DNA, 50 uM zinc acetate, 200 nM TF, 25 C, 1 h; high values mean tight binding). Conditions: protein: recombinant; tags: N-terminal polyhistidine and DsRed monomer fusion (pET32a); label: CyDye5-dUTP incorporated in the synthesized complementary strand; 3' TTTTT single-stranded linker to array surface; dsDNA, one strand shown.
Method in brief: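 The binding signal is fluorescence intensity per feature, in arbitrary units, read on an Axon 4000B scanner. Polyhistidine- and DsRed-tagged transcription factors (N-terminal fusions) from E. coli BL21-CodonPlus were purified on Ni–NTA and applied at 200 nM for 1 h at 25 °C to a double-stranded, BSA-blocked custom Agilent array in buffer with 50 µM zinc acetate.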

Chains of the proteins cited; added tags and fusions are not shown.
UniProt Q0JBA9, entry or part of it: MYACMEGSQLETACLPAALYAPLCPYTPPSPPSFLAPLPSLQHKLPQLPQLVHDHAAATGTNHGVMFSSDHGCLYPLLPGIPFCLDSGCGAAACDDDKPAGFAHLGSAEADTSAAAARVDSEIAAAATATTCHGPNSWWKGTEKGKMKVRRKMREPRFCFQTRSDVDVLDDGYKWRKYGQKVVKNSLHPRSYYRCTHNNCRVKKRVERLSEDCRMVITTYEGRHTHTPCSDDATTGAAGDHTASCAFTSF

Question: How did the binding signal turn out when “CACATACCTCATGTTCATTAATTTATGCCGTTTCCATTTACGGAGTCACCTAGTGCAG” was run?
Answer: 8270 fluorescence intensity (a.u.)

Question: With “AATCATTTCCGATATCCGGTCAAACCAATATGACATAAAACGGAGTCACCTAGTGCAG” as the sequence, how does the binding signal read?
Answer: 8270 fluorescence intensity (a.u.)

Question: With “ACAACAGAACAACTCGAAACTGTTTTTGACTTTTGGCACACGGAGTCACCTAGTGCAG” as the sequence, how does the binding signal read?
Answer: 8080 fluorescence intensity (a.u.)

Question: “GAGACAGGGGAGGAGGGTGTATATACGAAGTTCGAAGTGACGGAGTCACCTAGTGCAG” was tested. Which binding signal did it give?
Answer: 9120 fluorescence intensity (a.u.)

Question: Which binding signal does the source give for “TGGAGAGAGAGAGAGAGAGCCCCGCCGCCGCTGTCCTTGCCGGAGTCACCTAGTGCAG” here?
Answer: 8350 fluorescence intensity (a.u.)

Question: With “TCACTGAAGCCAGGCCTATTTGTTTTTGCAGTATCTAAACCGGAGTCACCTAGTGCAG” as the sequence, how does the binding signal read?
Answer: 11700 fluorescence intensity (a.u.)

Question: Which binding signal does the source give for “AGCAGGAGACTAGATAGCTCTTTGTTCTTGTTTGTTTTCTCGGAGTCACCTAGTGCAG” here?
Answer: 9210 fluorescence intensity (a.u.)

Question: How did the binding signal turn out when “GTCACGGCCGCCTCCGCCATCGCCTCCGCCACCTCCACCACGGAGTCACCTAGTGCAG” was run?
Answer: 13000 fluorescence intensity (a.u.)

Question: Which binding signal does the source give for “GGGAGCTTTGACCAGTCAACGGTCAAACGTTCAAAGGTCTCGGAGTCACCTAGTGCAG” here?
Answer: 10900 fluorescence intensity (a.u.)

Question: With “CACCGCCATCTTCCTCTTCTTCTTCGTCGTCGTGGTTGGCCGGAGTCACCTAGTGCAG” as the sequence, how does the binding signal read?
Answer: 11100 fluorescence intensity (a.u.)

Question: With “AACATCCCGAAACTAGCTAGATCACCCTGCTCCTGTCCTGCGGAGTCACCTAGTGCAG” as the sequence, how does the binding signal read?
Answer: 8140 fluorescence intensity (a.u.)

Question: With “CACAATCATCTATACATTTCATATTTGCATATCCTTTTTTCGGAGTCACCTAGTGCAG” as the sequence, how does the binding signal read?
Answer: 11300 fluorescence intensity (a.u.)

Question: Which binding signal does the source give for “TTTTATTGGTTCTTCTGTGCACCCTGGTATCCTTCCAACACGGAGTCACCTAGTGCAG” here?
Answer: 13000 fluorescence intensity (a.u.)

Question: With “ATCTCGCTCATGTAAACTATGTAATTGATTTTTTTCATCCCGGAGTCACCTAGTGCAG” as the sequence, how does the binding signal read?
Answer: 10200 fluorescence intensity (a.u.)

Question: How did the binding signal turn out when “CTCATTTTTCCTAATTCACATCTTTCGTTTTTGGTACGCACGGAGTCACCTAGTGCAG” was run?
Answer: 10000 fluorescence intensity (a.u.)

Question: Which binding signal does the source give for “TTTTTGGGGTTTTCTCTTCTTGATTGATTCGTTCTTGGCGCGGAGTCACCTAGTGCAG” here?
Answer: 13100 fluorescence intensity (a.u.)

Question: How did the binding signal turn out when “ACACACATCACACTGGCCGTCCTCCTCAAAAGCCGCGCCCCGGAGTCACCTAGTGCAG” was run?
Answer: 8990 fluorescence intensity (a.u.)

Question: For “ACTAAGCGCATTGATTCCCATTATATACTTCCTTTCCTAACGGAGTCACCTAGTGCAG”, which binding signal is on record?
Answer: 11400 fluorescence intensity (a.u.)

Question: With “CGCCCGTTCCGTTCCGTTCCCTATCCCAGGCTCTCCCGGCCGGAGTCACCTAGTGCAG” as the sequence, how does the binding signal read?
Answer: 11200 fluorescence intensity (a.u.)

Question: For “GTTTGGCAACAATTGGGGAGGGGCATAATATTAGCTCTGGCGGAGTCACCTAGTGCAG”, which binding signal is on record?
Answer: 8260 fluorescence intensity (a.u.)

Question: With “GGAGGAGGGCTCGCTTTATTGGAGTTTGTTCGTTTCTTTCCGGAGTCACCTAGTGCAG” as the sequence, how does the binding signal read?
Answer: 11100 fluorescence intensity (a.u.)

Question: Which binding signal does the source give for “CAGTCACCACATCTCATTTCCTCGTGCTGCTTCCACCCCTCGGAGTCACCTAGTGCAG” here?
Answer: 8420 fluorescence intensity (a.u.)

Question: “TACTCCACTCTCTTGGATTTATCGAGCATTGACCATACACCGGAGTCACCTAGTGCAG” was tested. Which binding signal did it give?
Answer: 8190 fluorescence intensity (a.u.)

Reference: PMC7819943, “Rice protein-binding microarrays: a tool to detect cis-acting elements near promoter regions in rice”
